Measurements from PubChem BioAssay AID588590 (National Center for Advancing Translational Sciences (NCATS), 2011).
Several values for one entry are separate records, joined by “and”; a condition that tells them apart may be missing. Identical values can stand only once. About 4,000 (1%) of roughly 390,000 compounds were called active. Inconclusive results, whose numbers are uncertain, are shown with a selection of clear calls. Calls come from the whole dose curve; as a rule, active = well fitted inhibition curve with a large enough effect; inconclusive = small, poorly fitted or top-dose-only effect, or another doubt; inactive = no such curve, though single readings can be large or run the other way. Potencies beside an inconclusive call are fits to weak or partial responses and may not hold up.

The chains behind the UniProt entries cited, without tags or fusion partners. Where a name states a change or a piece, a line headed by the entry shows the natural chain unless it says otherwise.
UniProt Q9UNA4: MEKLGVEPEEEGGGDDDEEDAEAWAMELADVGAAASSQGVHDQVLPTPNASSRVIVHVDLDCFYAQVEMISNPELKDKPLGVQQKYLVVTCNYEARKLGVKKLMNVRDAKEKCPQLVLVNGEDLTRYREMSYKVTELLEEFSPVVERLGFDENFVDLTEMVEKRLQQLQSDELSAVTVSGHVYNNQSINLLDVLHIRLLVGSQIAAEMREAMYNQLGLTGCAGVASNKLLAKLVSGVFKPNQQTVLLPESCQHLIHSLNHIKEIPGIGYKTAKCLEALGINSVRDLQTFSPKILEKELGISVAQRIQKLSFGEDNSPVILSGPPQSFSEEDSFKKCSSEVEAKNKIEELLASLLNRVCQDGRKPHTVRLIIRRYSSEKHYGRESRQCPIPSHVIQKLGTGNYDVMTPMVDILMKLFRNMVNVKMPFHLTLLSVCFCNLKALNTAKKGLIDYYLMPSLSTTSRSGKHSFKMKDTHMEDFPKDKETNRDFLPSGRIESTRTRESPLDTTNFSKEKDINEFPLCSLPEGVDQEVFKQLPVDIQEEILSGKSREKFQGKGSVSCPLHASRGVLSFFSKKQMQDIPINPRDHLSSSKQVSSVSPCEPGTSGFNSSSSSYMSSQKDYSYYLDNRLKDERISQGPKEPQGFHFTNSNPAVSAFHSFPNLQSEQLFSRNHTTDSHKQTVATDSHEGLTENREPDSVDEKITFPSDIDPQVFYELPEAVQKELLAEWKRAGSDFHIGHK

Target: DNA polymerase iota (Homo sapiens) (UniProt Q9UNA4)
Experiment: qHTS for Inhibitors of Polymerase Iota
Settings: Pol iota fluorescent replication assay, 10 min; series mostly up to 115 µM
In short: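 Pol iota at 10 nM preincubated 15 min with compounds at room temperature; reaction started with fluorescent substrate, 50 nM final. Fluorescence read kinetically at 0 and 10 min; buffer-only wells as negative control.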
Potency is the fitted concentration of half-maximal effect.

| SMILES | Potency |
| --- | --- |
| CC(=O)N1CCOc2ccc(S(=O)(=O)N3C(C)CCCC3C)cc21 (stereo not given) | inconclusive: 39.8 µM [inhibitor, single point] |
| O=C(O)c1cc(NC(=O)c2ccc([N+](=O)[O-])cc2)cc(NC(=O)c2ccc([N+](=O)[O-])cc2)c1 | inactive |
| CCCNc1ncc2c(=O)[nH][nH]c(=O)c2n1 | inconclusive: 20 µM [inhibitor, partial curve] |
| C=C(CN(C)C)C(=O)c1ccc2c(c1)OCO2 | inconclusive: 25.1 µM [inhibitor, partial curve, poor fit] |
| COc1ccc(N2C(=O)C3C(C2=O)C2C=CC3C23CC3)c(OC)c1 (stereo not given) | inconclusive: 25.1 µM [inhibitor, partial curve] |
| Cc1ccccc1CNC(=O)CCS(=O)(=O)c1cc2c3c(c1)CCN3C(=O)CC2 | inconclusive: 89.1 µM [inhibitor, single point] |
| Cc1cc(C)n2c(Br)c(CSc3nc4ccccc4o3)nc2n1 | inconclusive: 15.8 µM [inhibitor, partial curve, poor fit] |
| CCCNC(=O)NS(=O)(=O)c1ccc(Cl)cc1 | inactive |
| O=C(c1ccccc1)c1c2c(cc3sc4ccccc4[n+]13)-c1cccc3cccc-2c13 | active: 10 µM |
| CCc1ccc(NCc2cc3ccc(OC)cc3n(CC(=O)Nc3c(C)cc(C)cc3C)c2=O)cc1 | inactive |
| Cc1ccccc1Cn1nnc(-c2ccc(F)cc2)n1 | inactive |
| Cc1ccc(Nc2sc(C(=O)c3ccccc3)c(N)c2S(=O)(=O)c2ccccc2)cc1Cl | inconclusive: 89.1 µM [inhibitor, single point] |
| Cc1cc(C)nc(Sc2nc(Cl)nc(N(c3ccccc3)c3ccccc3)n2)n1 | inconclusive: 20 µM [inhibitor, partial curve, poor fit] |
| CCCc1ccc(C(=O)NNC(=O)c2ccc(Br)cc2)cc1 | inconclusive: 100 µM [inhibitor, partial curve, poor fit] |
| NC(=O)NC(=O)COC(=O)c1cccnc1Nc1ccccc1F | inconclusive: 79.4 µM [inhibitor, single point] |
| COc1ccc(NC(=O)CN(C)C(=O)CSc2nc3ccccc3s2)cc1 | inactive |
| CCCOc1ccc2nc(C)c(CCC)c(SC(=N)N)c2c1 | inconclusive: 50.1 µM [inhibitor, single point] |
| CCOc1ccc(NC(=O)CSC(N)=O)cc1 | inconclusive: 14.1 µM [inhibitor, partial curve, poor fit] |
| O=C(NCc1ccccc1)c1ccc2c(c1)CCN2S(=O)(=O)c1ccc(Cl)cc1 | inactive |
| N#Cc1ccsc1NC(=O)COc1ccc(-c2nnco2)cc1 | inconclusive: 8.91 µM [inhibitor, full curve, poor fit] |
| COc1ccc(CCN2CC(C#N)=C3c4cc(OC)c(OC)cc4CCN3C2)cc1OC | inconclusive: 89.1 µM [inhibitor, single point] |
| O=c1[nH]ncc2c3ccccc3n(Cc3cccc(Cl)c3)c12 | inconclusive: 25.1 µM [inhibitor, partial curve, poor fit] |
| CCC(=O)Nc1ccc2nc(SCCOc3ccc(C)cc3OC)sc2c1 | inactive |
| COc1ccccc1-n1cc(C(=O)N2CCCC(CO)(Cc3ccccc3C)C2)cn1 (stereo not given) | inactive |

| SMILES | Potency |
| --- | --- |
| COc1ccc(/C=C2/SC(=S)N(NS(=O)(=O)c3ccc(C)cc3)C2=O)cc1 | inconclusive: 28.2 µM [inhibitor, partial curve, poor fit] |
| CCc1nnc(NC(=O)CSc2ccc(-c3nc4ccccc4[nH]3)cn2)s1 | inconclusive: 79.4 µM [inhibitor, partial curve, poor fit] |
| CCN(C[C@H]1N[C@@](CC)(C(=O)OC)[C@H]2C(=O)N(Cc3ccccc3)C(=O)[C@@H]12)S(=O)(=O)c1ccccc1 | inconclusive: 89.1 µM [inhibitor, single point] |
| CCOC(=O)C1=C(CS(=O)(=O)c2ccc(F)c(C)c2)NC(=O)NC1c1ccc(O)c(O)c1 (stereo not given) | inconclusive: 44.7 µM [inhibitor, partial curve] |
| CCN(CC)CCNC(=O)CN1N=C(c2ccc(OC)cc2)CCC1=O | inactive |
| CN(c1ccc(OCC(=O)NC2CCC(O)CC2)cc1)S(=O)(=O)c1ccc(Cl)cc1 (stereo not given) | inconclusive: 89.1 µM [inhibitor, partial curve, poor fit] |
| O=C(c1ccc2c(c1)OCO2)c1cn(Cc2ccc(Cl)cc2)c2ccc(F)cc2c1=O | inactive |
| COCCNC(=O)CN1C(=O)c2cccnc2Sc2ccccc21 | inactive |
| COc1cccc(NS(=O)(=O)c2ccc(S(=O)(=O)N3CCCC3)cc2)c1 | inactive |
| COc1cccc2c(C)cc3nnc(SCC(=O)Nc4ccc(C)cc4)n3c12 | inactive |
| Cc1ccc(-c2cn3cccnc3n2)cc1NC(=O)Nc1ccc(F)cc1 | inactive |
| O=C(O)c1cccc(Cn2c(Cl)c(/C=N/NC(=O)c3ccccc3O)sc2=O)c1 | inconclusive: 31.6 µM [inhibitor, full curve] |
| CC1CCC(NC(=O)c2ccc(CS(=O)(=O)c3ccc(Cl)cc3)o2)CC1 (stereo not given) | inactive |
| O=C1CS/C(=N/N=C/c2cccs2)N1Cc1ccc(F)cc1 | inactive |
| CCOC(=O)C(=O)Nc1nnc(C2CCCCC2)s1 | inconclusive: 22.4 µM [inhibitor, single point] |
| Cc1ccc2c(CC(=O)OCn3nnc4ccccc4c3=O)coc2c1 | inconclusive: 17.8 µM [inhibitor, full curve, poor fit] |
| CCN1/C(=C/c2ccc3cc(C)ccc3[n+]2CC)Sc2ccc3sccc3c21 | inactive |
| CCCCNC(=O)C(CC)Sc1nc2ccccc2c(=O)n1Cc1ccco1 (stereo not given) | inactive |
| Cc1nc2c(-c3ccccc3)c(C)nn2c(C)c1CCC(=O)NC(C)CCc1ccco1 (stereo not given) | inconclusive: 100 µM [inhibitor, single point] |
| Clc1cccc(Cl)c1CO/N=C/c1cccs1 | inconclusive: 22.4 µM [inhibitor, partial curve, poor fit] |
| COc1ccccc1CNC(=O)c1ccc2[nH]c(C)c(C)c2c1 | inconclusive: 70.8 µM [inhibitor, partial curve] |
| O=C(Cn1ncc(Cl)c(Cl)c1=O)N1CCc2ccccc21 | inconclusive: 12.6 µM [inhibitor, partial curve, poor fit] |
| Cc1ccc(-c2c(C(=O)Nc3ccccc3C)c(C)[nH]c(=S)c2C#N)o1 | inconclusive: 0.794 µM [inhibitor, full curve, poor fit] |
| Cc1ccc(C(=O)c2sc(Nc3ccccc3)c(S(=O)(=O)c3ccccc3)c2N)c(C)c1 | inactive |

| SMILES | Potency |
| --- | --- |
| Cc1c(NS(=O)(=O)c2cccc(C(=O)NCc3ccco3)c2)c(=O)n(-c2ccccc2)n1C | active: 35.5 µM |
| C/C(=N\Nc1ccc(Cl)c(C(=O)O)c1)c1ccc(N2CCOCC2)cc1 | inconclusive: 20 µM [inhibitor, full curve] |
| CC1(C(=O)NNC(=O)c2ccc(=O)oc2)CC1Br (stereo not given) | inconclusive: 14.1 µM [inhibitor, full curve, poor fit] |
| COCCNC(=O)C1CCN(Cc2cc3ccccc3n2Cc2ccc(C)cc2)CC1 | inactive |
| COc1ccc(C(=O)COC(=O)/C=C/c2ccccc2)cc1 | inactive |
| CCCCNC(=S)NNC(=O)c1cc(C)on1 | inconclusive: 20 µM [inhibitor, partial curve, poor fit] |
| CSCCOC(=O)C1=C(C)Nc2ccc(C)cc2S1 | inconclusive: 3.16 µM [inhibitor, full curve, poor fit] |
| Cc1[nH]c2ccc(Br)cc2c1CCNC(=O)c1cc2ccccc2oc1=O | inactive |
| O=C(NCCN1CCCC1)c1ccc(Cn2c(=S)[nH]c3cc4c(cc3c2=O)OCO4)cc1 | inconclusive: 15.8 µM [inhibitor, partial curve, poor fit] |
| C/C(=N\NC(=O)c1ccc(NS(=O)(=O)c2cccs2)cc1)c1ccc(Cl)cc1 | inactive |
| CC1CCCC(NC(=O)COC(=O)c2ccc([N+](=O)[O-])s2)C1C (stereo not given) | active: 89.1 µM |
| COc1ccc(NC(=O)N2CCC(Cc3ccccc3)CC2)cc1 | inconclusive: 4.47 µM [inhibitor, full curve, poor fit] |
| COc1ccc(/C(C)=N\NC(=O)CNC(=O)C(c2ccccc2)c2ccccc2)cc1OC | inactive |
| CC(=O)C1=C(c2ccccc2)N(C(C)=O)n2c(nnc2C2CCCCC2)S1 | inactive |
| O=C(CCCN1C(=O)/C(=C\c2ccccc2)SC1=S)N1CCOCC1 | inactive |
| CS(=O)(=O)c1ccc(C(=O)OCC(=O)N2CC(=O)Nc3ccccc32)cc1[N+](=O)[O-] | active: 50.1 µM |
| O=[N+]([O-])c1ccc(NNC(=S)Nc2ccccc2)cc1 | inconclusive: 3.55 µM [inhibitor, full curve, poor fit] |
| CCOC(=O)c1cccc(NC(=O)C2CCCN2S(=O)(=O)c2cccc3cccnc23)c1 (stereo not given) | inconclusive: 20 µM [inhibitor, single point] |
| COc1ccc(S(=O)(=O)n2nc(OC(=O)c3ccccc3)cc2N)cc1 | inconclusive: 17.8 µM [inhibitor, partial curve, poor fit] |
| Nc1nc2c(s1)CCc1c-2cnn1-c1ccccc1 | active: 4.47 µM and active: 14.1 µM |
| O=c1[nH][nH]c(=O)c2cc([N+](=O)[O-])ccc12 | inconclusive: 50.1 µM [inhibitor, partial curve, poor fit] |
| COC(=O)c1cccc2c1NC(=O)C2=O | inconclusive: 14.1 µM [inhibitor, full curve, poor fit] |
